Source: patent EP4137518A1 (Inhibrx, Inc., dated 2023)
No constants are given. Whether binding was seen depends on the method and setting. Some entries that bind do so weakly or less than the wild type.

Legend:
[1] = target: cynomolgus monkey CD47 on cynomolgus B-cells (cynomolgus monkey); assay: flow cytometry on cynomolgus monkey B-cells (Figure 5)
[2] = target: cynomolgus monkey CD47 on cynomolgus B-cells (cynomolgus monkey); assay: flow cytometry on CD20 positive cynomolgus B-cells, normalized median FL1

B1: 2A1 antibody (murine) (antibody, V domains shown)
VH: EVQLQQSGAELVRSGASVKLSCTASGFNIKDYYLHWVKQRPEQGLEWIGWIDPDNGDTEFAPKFQGKATMTADTSSNTAYLQLSSLTSEDTAVYYCNAAYGSSSYPMDYWGQGTSVTV
VL: DIKMTQSPSSLYASLGERVTITCKASQDIHRYLSWFQQKPGKSPKILIYRANRLVDGVPSRFSGSGSGQDYSLTISSLEYEDMGIYYCLQYDEFPYTFGGGTKLEMK
- binding [1]: binds
- binding [2]: binds
